Values from PubChem BioAssay AID743121 (NCATS, 2013)
Test: 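Partners whose loss is lethal together with topoisomerase I blockade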 (primary screen). Cell system: MDA-MB-231 cells, a human breast cancer line. Reagent: single siRNA against human genes, 20 nM siRNA (0.8 pmol per well). Duration: 120 h (drug added 48 h after transfection, read 72 h later). Challenge: camptothecin 20 nM (about EC30) for 72 h; vehicle 0.1% DMSO in parallel plates. Read-out: 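Cell viability by ATP luminescence (CellTiter-Glo) as % of non-targeting siRNA wells, and the log2 ratio of viability without drug over viability with camptothecin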. Scale: log2 vehicle/camptothecin viability: higher = stronger sensitisation to camptothecin. Hit rule: 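Each gene scored by redundant siRNA activity (RSA) over its individual siRNA ratios; a gene is called active at p < 0.001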.
The whole screen tested about 26,000 reagents; shown is an unselected part. Over the whole deposit, 167 (0.63%) were called active. 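Calls are per gene from RSA p-values that are not deposited; an individual active-marked siRNA can sensitise only weakly.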 The numbers tell different reagents against one gene apart. Further read-outs or replicates are left out here.

log2 vehicle/camptothecin viability, by gene and reagent
PLCB1: #1 -1.04 inactive; #2 -0.0887 inactive; #3 0.0778 inactive; #4 -0.364 inactive
LHX4: #1 -0.137 inactive; #2 -0.0257 inactive; #3 0.00794 inactive; #4 -0.2 inactive
CHMP1B: #1 -0.0195 inactive; #2 -0.0095 inactive; #3 -0.129 inactive; #4 -0.252 inactive
CHKA: #1 -0.474 inactive; #2 -0.297 inactive; #3 -0.155 inactive; #4 -0.0679 inactive
LEP: #1 -0.241 inactive; #2 0.313 inactive; #3 -0.155 inactive
VN1R5: #1 -0.753 inactive; #2 -0.0939 inactive; #3 0.335 inactive; #4 0.522 inactive
RAET1G: #1 0.133 inactive; #2 0.173 inactive; #3 -0.509 inactive
HLTF: #1 -0.155 inactive; #2 -0.259 inactive; #3 -0.153 inactive; #4 -0.229 inactive

Records listed so far whose gene name begins with V or v (4):
log2 vehicle/camptothecin viability, by gene and reagent
VN1R5: #1 -0.753 inactive; #2 -0.0939 inactive; #3 0.335 inactive; #4 0.522 inactive
